Experimental data reported in publication doi:10.1101/2021.09.14.460262 (bioRxiv, 2021).
These are yes or no findings as the source states them, for the method shown.

Biological target: T1, Escherichia coli outer membrane protein G (OmpG), fluorescently labeled (Escherichia coli) (UniProt P76045)
T1 sequence (chain, fluorescent label (dye not named)): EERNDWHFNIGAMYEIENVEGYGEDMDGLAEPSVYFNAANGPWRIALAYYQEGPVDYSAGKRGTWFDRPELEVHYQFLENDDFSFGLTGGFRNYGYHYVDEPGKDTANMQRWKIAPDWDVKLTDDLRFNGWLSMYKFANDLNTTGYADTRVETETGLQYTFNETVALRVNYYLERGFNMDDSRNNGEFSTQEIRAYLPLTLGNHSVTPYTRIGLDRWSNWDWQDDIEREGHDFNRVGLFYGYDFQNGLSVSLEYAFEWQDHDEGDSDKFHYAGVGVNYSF
Test: MST

binding: no binding (tested: 15 nM to 500 µM)
B1: recombinant full length His6-BID (natural protein, UniProt P70444 1-195, looked up)
chain: MDSEVSNGSGLGAEHITDLLVFGFLQSSGCTRQELEVLGRELPVQAYWEADLEDELQTDGSQASRSFNQGRIEPDSESQEEIIHNIARHLAQIGDEMDHNIQPTLVRQLAAQFMNGSLSEEDKRNCLAKALDEVKTAFPRDMENDKAMLIMTMLLAKKVASHAPSLLRDVFHTTVNFINQNLFSYVRNLVRNEMD
